# Where two headings read alike, the source gives them in different places. For some of these results: At least one structure is not confirmed: it was looked up by name or label, or the drawing left a doubt. Some entries share one result that the patent states for a list of compounds. *1 amine or outer side, *2 acyl side, *3 side chain or, on linkers, in order; H or OH if unused. Where a SMILES comes first, the peptide text is derived from it. [ ]: non-standard residue; d: D form. isoSer(2S) = O=C([C@@H](O)CN[*:1])[*:2]
# Legend:
# recombinant ADAM8 = target: T1, recombinant ADAM8 (Mus musculus, UniProt Q05910); test: Fluorescence assay of purified recombinant ADAM8 with fluorogenic CD23 peptide substrate; type: biochemical
# T1 sequence (Q05910 17-826): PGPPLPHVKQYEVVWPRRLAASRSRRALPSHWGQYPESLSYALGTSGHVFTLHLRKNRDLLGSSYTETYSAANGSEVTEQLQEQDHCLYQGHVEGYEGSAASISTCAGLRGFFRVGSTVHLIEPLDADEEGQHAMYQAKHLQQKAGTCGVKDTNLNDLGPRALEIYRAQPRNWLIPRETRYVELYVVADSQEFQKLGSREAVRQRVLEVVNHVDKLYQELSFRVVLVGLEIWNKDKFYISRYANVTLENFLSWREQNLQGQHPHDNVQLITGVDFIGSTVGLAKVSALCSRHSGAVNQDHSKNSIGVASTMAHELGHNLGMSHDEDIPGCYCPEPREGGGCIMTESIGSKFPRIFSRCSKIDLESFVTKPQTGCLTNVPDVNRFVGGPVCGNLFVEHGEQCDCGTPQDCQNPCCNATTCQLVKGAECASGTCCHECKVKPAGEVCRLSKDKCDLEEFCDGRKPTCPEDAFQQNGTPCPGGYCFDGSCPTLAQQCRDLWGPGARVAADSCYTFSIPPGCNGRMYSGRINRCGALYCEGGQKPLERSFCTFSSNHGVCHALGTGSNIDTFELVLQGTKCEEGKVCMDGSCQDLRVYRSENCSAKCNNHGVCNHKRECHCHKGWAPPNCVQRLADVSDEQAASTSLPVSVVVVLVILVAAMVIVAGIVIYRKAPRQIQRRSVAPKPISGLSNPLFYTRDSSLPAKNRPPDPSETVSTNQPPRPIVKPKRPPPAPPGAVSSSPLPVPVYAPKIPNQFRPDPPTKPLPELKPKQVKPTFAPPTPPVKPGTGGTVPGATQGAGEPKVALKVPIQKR
# Method: In the following example, the ability of cyclic peptides to inhibit the activity of a recombinant ADAM8 was tested in fluorescence assays using a fluorogenic ADAM8 substrate (Moss and Rasmussen, 2007).
# (§1) Activity of purified recombinant ADAM8 was assessed by using a fluorogenic CD23 peptide (Dabcyl-[…](5-FAM)-CONH2, SEQ ID NO:19) as a substrate. 50 ng substrate was incubated with 100 ng of ADAM8 in assay buffer (25 mM TrisHCl pH 7.5, 10 mM CaCl2, 150 mM NaCl) at 37° C. in the time range of 0 to 18 hours. Potential ADAM8 inhibitors were preincubated for 30 min before addition of the substrate. As a negative control, CD23 was incubated with assay buffer. For determination of ADAM10 activity, 100 ng of the recombinant ADAM10 protein (R&D systems) was used in conjunction with the fluorogenic substrate Dabcyl-LAQA(HomoPhe) RSC (Fluorescein)-NH2 (SEQ ID NO:55) in assay buffer (TrisHCl pH 9.0, 2.5 μM ZnCl2). For both assays the final volume in each well was 150 μl. Activity was measured as increase in fluorescence resulting from ADAM8/ADAM10 to cleave the quenched fluorescent substrates (λ excitation: 485 nm; λ emission: 520 nm) using a BMG Optima plate reader fluorometer.
# recombinant ADAM10 = target: T2, recombinant ADAM10 (Homo sapiens, UniProt O14672); test: Fluorescence assay of recombinant ADAM10 with fluorogenic LAQA peptide substrate; type: biochemical; conditions: FIG. 2, peptides at 100 nM
# T2 construct: purchased R&D systems
# T2 sequence (O14672 214-748): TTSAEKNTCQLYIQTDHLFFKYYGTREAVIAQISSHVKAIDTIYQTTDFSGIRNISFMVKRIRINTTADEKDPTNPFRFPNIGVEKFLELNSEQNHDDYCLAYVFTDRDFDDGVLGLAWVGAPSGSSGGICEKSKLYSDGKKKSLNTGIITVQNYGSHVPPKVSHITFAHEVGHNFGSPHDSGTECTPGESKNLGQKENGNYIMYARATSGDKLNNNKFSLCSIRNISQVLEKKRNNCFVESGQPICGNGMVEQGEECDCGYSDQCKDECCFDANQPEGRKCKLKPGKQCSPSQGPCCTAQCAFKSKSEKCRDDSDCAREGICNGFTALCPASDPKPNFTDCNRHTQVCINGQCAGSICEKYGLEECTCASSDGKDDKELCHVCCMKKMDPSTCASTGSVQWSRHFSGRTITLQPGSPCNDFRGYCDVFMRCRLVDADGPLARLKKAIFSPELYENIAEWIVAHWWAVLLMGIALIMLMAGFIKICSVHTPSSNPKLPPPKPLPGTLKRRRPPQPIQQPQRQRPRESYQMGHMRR
# Method: as §1
Molecule,"IC50 (recombinant ADAM8; Table 1, read-out: A8 Inhibition IC50) [nM]","IC50 (recombinant ADAM8; small fluorogenic peptide substrate, read-out: IC50 ADAM8 (Example 3)) [nM]",inhibition of ADAM10 (recombinant ADAM10; listed as peptide P1),inhibition of ADAM10 (recombinant ADAM10)
"CC(C)C[C@@H]1NC(=O)[C@H](CCCNC(=N)N)NC(=O)[C@H](CCCCN)NC(=O)[C@H](CC(=O)O)NC(=O)[C@H](CCCCN)NC(=O)[C@@H](O)CNC1=O [Peptide P1, c(RLsKDK)] (cyclo(RL[isoSer(2S)]KDK))",100,~50,none of the peptides P1 to P4 was a good inhibitor of ADAM10,–
H-RLSKDK-OH ((1)..(6) Synthetic peptide is cyclic with terminal amino acids joined) [Peptide P4],–,–,–,none of the peptides P1 to P4 was a good inhibitor of ADAM10

# From patent US10472393B2, “Method for inhibiting ADAM proteases with cyclic peptides” (Cancer Research Technology Limited, priority 2007, dated 2019)
